Source: PubChem BioAssay AID504834 (National Center for Advancing Translational Sciences (NCATS), 2011)
Among all 320,000 compounds or so, about 22,000 (6.9%) were called active. Inconclusive results, whose numbers are uncertain, are shown with a selection of clear calls. The call rests on the fitted dose curve; in most records, active means well fitted inhibition curve with a large enough effect; inconclusive means small, poorly fitted or top-dose-only effect, or another doubt; inactive means no such curve, though single readings can be large or run the other way. Potencies beside an inconclusive call are fits to weak or partial responses and may not hold up.

Experiment: Primary qHTS for delayed death inhibitors of the malarial parasite plastid, 96 hour incubation
Settings: P. falciparum luciferase reporter growth; series mostly up to 28.7 µM
Outline: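 Erythrocytes infected with luciferase-expressing P. falciparum were dispensed at 2% hematocrit and 0.05% parasitemia (final), then incubated with compounds 96 hours at 37 C in 5% CO2. Luminescence after detection reagent addition reported growth.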
Potency means the concentration at half of the fitted maximal effect.

For `CCN(Cc1cnn(C)c1)C(=O)c1ccc2nc(Cc3cccc(Cl)c3)oc2c1`, which Potency is on record?
The Potency was inconclusive: 18.5 µM [inhibitor, single point].

For `COc1cc2c(cc1OC)C(C(=O)N1CCOCC1)C(c1cccs1)N(C)C2=O` (configuration not stated), which Potency is on record?
Its Potency is inconclusive: 11.7 µM [inhibitor, partial curve, poor fit].

With `CC(C)Cn1c2c(c(O)c(C(=O)Nn3c(Cc4ccccc4)nc4ccccc4c3=O)c1=O)CCCC2` as the molecule, how does the Potency read?
Its Potency is “inactive”.

For `Cc1ccc2c(C(=O)CN3CCN(C4CCCCC4)CC3)c(C)[nH]c2c1`, which Potency is on record?
The Potency was “inactive”.

With `Cc1c(C)n(Cc2ccccc2)c2ncnc(NCCCN(C)C)c12` as the molecule, how does the Potency read?
Its Potency is “inactive”.

For `COc1ccc(-c2nc(C(=O)NCC3CCCO3)cc3c2[nH]c2ccccc23)cc1` (configuration not stated), which Potency is on record?
Its Potency is active: 7.38 µM.

For `Cc1cc(C)cc(OCC(=O)OCC(=O)NC2CCCC2)c1`, which Potency is on record?
Its Potency is “inactive”.

With `O=C(NC(Nc1ncccn1)C(=O)c1ccccc1)c1ccccc1` (configuration not stated) as the molecule, how does the Potency read?
The Potency was “inactive”.

With `COc1cccc(/C(C)=N/NC(=O)c2cc(-c3cccnc3)nc3ccccc23)c1` as the molecule, how does the Potency read?
Its Potency is inconclusive: 18.5 µM [inhibitor, single point].

With `CC(=O)C(C(C)=O)c1c(Cl)c(O)c(O)c2c(C(=O)c3ccccc3)coc12` as the molecule, how does the Potency read?
The Potency was active: 2.62 µM.

With `Cc1onc(-c2c(F)cccc2Cl)c1C(=O)Nc1nc2c(s1)CCCC2` as the molecule, how does the Potency read?
The Potency was “inactive”.

Which Potency does the source give for `COC(CNC(=O)Cn1nc(Cc2ccncc2)c2ccccc2c1=O)OC` here?
Its Potency is “inactive”.

With `COc1ccccc1NC(=O)COC(=O)c1c[nH]c2ccccc12` as the molecule, how does the Potency read?
The Potency was inconclusive: 13.1 µM [inhibitor, single point].

With `O=C(OCC(=O)N1CCN(S(=O)(=O)c2ccccc2)CC1)c1ccc([N+](=O)[O-])o1` as the molecule, how does the Potency read?
Its Potency is “inactive”.

With `Cc1ccc(NC(=O)CSC2=NN3CCCC(=O)N=C3S2)c(C)c1` as the molecule, how does the Potency read?
Its Potency is inconclusive: 18.5 µM [inhibitor, partial curve, poor fit].

With `CCC(C(=O)OC)n1cnc2scc(-c3ccc(C)c(C)c3)c2c1=O` (configuration not stated) as the molecule, how does the Potency read?
Its Potency is “inactive”.

With `COc1ccc(/C=C/C(=O)Nc2c(C)nn(C)c2C)cc1COc1ccc(Br)cc1` as the molecule, how does the Potency read?
Its Potency is inconclusive: 18.5 µM [inhibitor, single point].

Which Potency does the source give for `CCOc1ccc(C(=O)Nc2ccccc2C(=O)O)cc1` here?
Its Potency is inconclusive: 4.15 µM [inhibitor, single point].

With `CCCCC[C@H](O)/C=C/[C@@H]1[C@@H](CCCCCCC(=O)O)[C@@H](O)C[C@H]1O` as the molecule, how does the Potency read?
Its Potency is inconclusive: 20.8 µM [inhibitor, single point].

With `NNC(=O)c1cccc(COc2ccc3c(c2)CCC3)c1` as the molecule, how does the Potency read?
The Potency was “inactive”.

With `C=CCOC(=O)C1=C(C)NC(=O)NC1c1ccc(Cl)cc1` (configuration not stated) as the molecule, how does the Potency read?
The Potency was inconclusive: 18.5 µM [inhibitor, single point].

For `O=C(NC(=S)Nc1ccc(N2CCOCC2)c(Cl)c1)C(c1ccccc1)c1ccccc1`, which Potency is on record?
Its Potency is inconclusive: 11.7 µM [inhibitor, single point].

With `O=C(c1ccc(COc2ccccc2Cl)o1)N1CCCC1` as the molecule, how does the Potency read?
The Potency was inconclusive: 11.7 µM [inhibitor, partial curve, poor fit].

With `O=C(O)c1ccc(Cl)c(N2C(=O)Nc3ccccc3N2O)c1` as the molecule, how does the Potency read?
The Potency was “inactive”.

Which Potency does the source give for `CC(C)Oc1ccc(CNC(=O)Cn2ccc3cc(S(=O)(=O)N4CCCC4)ccc32)cc1` here?
The Potency was inconclusive: 2.08 µM [inhibitor, partial curve].

With `Cc1cc(NC(=O)CCC(=O)N(CC(=O)NC2CCCC2)c2ccc(Cl)cc2)no1` as the molecule, how does the Potency read?
Its Potency is “inactive”.

Which Potency does the source give for `O=C(NNC(=O)c1cnccn1)c1ccc(Cl)cc1` here?
Its Potency is inconclusive: 10.4 µM [inhibitor, single point].

Which Potency does the source give for `O=C(N/N=C/c1ccncc1)c1cc(-c2ccc(Br)s2)[nH]n1` here?
The Potency was active: 11.7 µM.

Which Potency does the source give for `CCn1c2ccc(C)cc2c2n[nH]c(=S)nc21` here?
The Potency was “inactive”.

For `CCC1CSC(Nc2ccc(C(=O)/C=C/c3ccc(Br)cc3)cc2)=N1` (configuration not stated), which Potency is on record?
Its Potency is inconclusive: 16.5 µM [inhibitor, single point].

Which Potency does the source give for `Cc1ccc(-n2nccc2-c2nn(-c3cccc(C(F)(F)F)c3)c(=O)n(C)c2=O)cc1` here?
Its Potency is inconclusive: 0.928 µM [inhibitor, partial curve, poor fit].

With `CN(Cc1ccccc1)C(=O)c1ccc(NC(=O)Cc2cccc(NC(=O)C3CCCN(C(=O)C4CCCCC4)C3)c2)cc1` (configuration not stated) as the molecule, how does the Potency read?
Its Potency is inconclusive: 18.5 µM [inhibitor, single point].

For `COc1ccc(/C(C)=N/NC(=O)c2cc(C)[nH]n2)c(OC)c1`, which Potency is on record?
Its Potency is inconclusive: 2.62 µM [inhibitor, full curve].

For `CCn1c(COc2ccc(=O)n(-c3ccccc3)n2)nnc1SCc1ccc(OC)cc1`, which Potency is on record?
The Potency was inconclusive: 8.28 µM [inhibitor, partial curve].

For `CC(C)Cn1ccc(=O)n(CC(C)C)c1=O`, which Potency is on record?
Its Potency is inconclusive: 18.5 µM [inhibitor, single point].

With `CCc1nnc(NS(=O)(=O)c2ccc(N/C=C\C(=O)c3ccc4ccccc4c3)cc2)s1` as the molecule, how does the Potency read?
Its Potency is inconclusive: 3.29 µM [inhibitor, partial curve, poor fit].

For `O=C(NNc1ccccc1C(F)(F)F)c1sccc1Br`, which Potency is on record?
The Potency was “inactive”.

For `Cc1cc2cc(C=C(C#N)C#N)c(Cl)nc2cc1C`, which Potency is on record?
Its Potency is “inactive”.

With `OCc1c(OCc2cccc(F)c2)ccc2ccccc12` as the molecule, how does the Potency read?
Its Potency is inconclusive: 18.5 µM [inhibitor, single point].

With `CCCCNC(=O)N(O)C1N(/N=C/c2cccs2)C(=S)SC1(C)C` (configuration not stated) as the molecule, how does the Potency read?
The Potency was inconclusive: 9.28 µM [inhibitor, single point].

Which Potency does the source give for `CCCCn1nnc(NC(=O)C(c2ccccc2)c2ccccc2)n1` here?
The Potency was inconclusive: 14.7 µM [inhibitor, single point].

Which Potency does the source give for `Cn1nc(CC(=O)NC2CCCCC2)c2ccccc2c1=O` here?
The Potency was “inactive”.

For `C/C(=N\NC(=O)c1ccc(CSc2nncn2C)cc1)c1cccs1`, which Potency is on record?
Its Potency is “inactive”.

For `Cc1ccc(-n2nnnc2SCC(=O)c2c(N)n(C3CC3)c(=O)[nH]c2=O)cc1`, which Potency is on record?
Its Potency is inconclusive: 1.65 µM [inhibitor, full curve].

For `Cc1occc1C(=O)NNC(=O)c1ccccc1C(=O)O`, which Potency is on record?
Its Potency is “inactive”.

Which Potency does the source give for `Cc1noc(C)c1CCC(=O)N1CCCC(CO)(Cc2ccccc2)C1` (configuration not stated) here?
Its Potency is inconclusive: 20.8 µM [inhibitor, single point].

With `COc1ccc(-c2cc(C)no2)cc1S(=O)(=O)NCCCN1CCCCCC1` as the molecule, how does the Potency read?
Its Potency is “inactive”.
